# PMC12727705
# T1: DAF-16::TurboID::mNeongreen::3xFLAG (C. elegans) (UniProt O16850)
# T1 sequence: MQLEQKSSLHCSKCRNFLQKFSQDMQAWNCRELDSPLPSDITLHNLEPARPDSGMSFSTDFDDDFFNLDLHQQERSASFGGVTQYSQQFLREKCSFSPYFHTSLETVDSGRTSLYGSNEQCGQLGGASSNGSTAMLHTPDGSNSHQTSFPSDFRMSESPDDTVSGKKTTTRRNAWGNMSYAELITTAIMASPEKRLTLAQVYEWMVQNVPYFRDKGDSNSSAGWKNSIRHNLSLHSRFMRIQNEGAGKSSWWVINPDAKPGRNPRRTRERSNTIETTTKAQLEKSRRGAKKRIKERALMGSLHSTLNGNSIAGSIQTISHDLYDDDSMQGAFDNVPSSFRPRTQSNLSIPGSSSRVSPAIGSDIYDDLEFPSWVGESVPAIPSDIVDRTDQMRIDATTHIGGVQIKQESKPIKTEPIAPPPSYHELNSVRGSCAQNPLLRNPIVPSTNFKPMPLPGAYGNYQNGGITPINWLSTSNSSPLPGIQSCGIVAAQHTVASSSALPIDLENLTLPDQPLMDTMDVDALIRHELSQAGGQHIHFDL
# Target: T1, DAF-16::TurboID::mNeongreen::3xFLAG (C. elegans)
# Assay: proximity labelling; TurboID fused to endogenous DAF-16 in living C. elegans, wild-type (cytoDAF-16) or daf-2(e1370) (nucDAF-16) background; L4/young adults, 1 mM biotin in M9 for 2 h at 21 °C; biotinylated proteins affinity purified on streptavidin and identified by mass spectrometry; control: wild type without …
binder,measurement,value
"ZFP-1 (protein, UniProt P34447 1-867) MKEMVGGCCVCADENGWTDNPLIYCDGENCEVAVHQGCYGIQEVPEGEWFCAKCTKASAMMPGSINEATFCCQLCPFDYGALKKTDRNGWAHVICALYIPEVRFGNVHSMEPVILNDVPTDKFNKLCYICNEERPNDAKKGACMSCNKSTCKRSFHVTCAQRKGLLCEEGAISRNVKYCGYCENHLKKAINDPAIKVIPACPPVQRLSKEQDKKKTVLLTSLPLPPPAPRLHMLADPLPIKSNKVNNVLGLGSAINAVSLEERPASGSTVNSGIFVPPPTAFSPPLTTSSRSSVAQDPSPPLTINKNSLSSSGPLIPSTAHLSATTASATPIMANGSTLPPSSETTVGTHCLQQLQIQSAAAAAITQNQIGPSELNGYPAASQLSSFMHEIPARNTTSVASLLPPGAAEYHLNGSGDEEKTVKAVLTAPLTKAKRIRDSKNDMMDKTHKRPRANARPPAVLGSMSSGSSGGTVGKSPSMQRLQNLVAPIVSETVTDFQRDRVADRTAAERRAAAAQSQPSTSTNGGPNVTIPAVVEVHTNSTNSTNHQNNGLTQNAPASTSMQAGTSSNDGVISQNGTSSTSQSNRLNLPSFMEQLLERQWDQGSSLLMANAHFDVAQLLSCLFQLKSENFRLEENLSGLRKRRDHLFALNSRLAEVNTLDVSKRQRSDGLLLQQQIAHHLDPTSIVPKAEVHKQEPLSAPTSVPLPANHSSSLFEDIKAPKATYSRKTPSNIPLTVPLSTAATALTTTTAASSGAPVNSNIQNHRATPSTAGAPMAATPIMTAVTSANELAALSPERAQALLNMYRMPLDANVAAQLSMITNFPGQVNPSLFSRLLAVNMMNGGLQPNGQPLSALPPPTSATPNGK",binding,binds

# These are yes or no findings as the source states them, for the method shown. Binding seen in cells or lysates may run through a third protein. Here binding means that the protein was enriched with, or labelled near, the bait; the list need not be complete. Tags and fused reporters may be left off the sequences shown.
